The reference is the same well before dosing, and untreated signal decays as well.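 Labels refer to human fibroblasts, largely primary: uterine (C12385, HUF), lung (H6013), bone (Hs27A), adrenal (HADF), skin (WS1), plus mammary HMF and breast cancer-associated Hs343T. Cancer lines are basal-like or mesenchymal-like triple-negative breast cancer. The paper counts as hits responses shifting over 3x the replicate standard deviation. The tissue of the other fibroblasts is not given here.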
Tested on: HCC1143
Assay: relative JC-1 red fluorescence (viability) vs pre-drug, coculture with fibroblast (fraction); higher = more viable cancer cells
Method: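 JC-1 labelled TNBC cells cocultured 1:1 (1,500 cells each) with CellTrace Violet stained primary or stromal fibroblasts in 384-well plates in FluoroBrite medium, treated with one of 42 anticancer drugs at 0.1, 1, 10 or 100 uM. JC-1 red fluorescence (mitochondrial integrity in cancer cells only) was read by plate reader every 8 h for 72 h. Values are normalised to each well's pre-drug value. The stock of one drug was tenfold lower, so its dose labels may be too high.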

O=C1c2c(O)ccc(O)c2C(=O)c2c(NCCNCCO)ccc(NCCNCCO)c21 [Mitoxantrone]
relative JC-1 red fluorescence
Conditions | 8 h | 16 h | 24 h | 32 h | 40 h | 48 h | 56 h | 64 h | 72 h
1 µM, coculture fibroblast: C12385 | – | – | – | – | – | 0.454 | 0.446 | 0.437 | 0.434
1 µM, coculture fibroblast: H6013 | – | – | – | – | – | 0.277 | 0.253 | 0.235 | 0.159
1 µM, coculture fibroblast: H6019 | – | – | – | – | – | 0.428 | 0.399 | 0.372 | 0.357
1 µM, coculture fibroblast: H6076 | – | – | – | – | – | 0.38 | 0.356 | 0.342 | 0.348
1 µM, coculture fibroblast: H6231 | – | – | – | – | – | 0.348 | 0.332 | 0.318 | 0.328
1 µM, coculture fibroblast: HADF | – | – | – | – | – | 0.239 | 0.234 | 0.229 | 0.155
1 µM, coculture fibroblast: HCFa | – | – | – | – | – | 0.325 | 0.316 | 0.295 | 0.228
1 µM, coculture fibroblast: HCPF | – | – | – | – | – | 0.361 | 0.345 | 0.336 | 0.353
1 µM, coculture fibroblast: HHSteC | – | – | – | – | 0.249 | 0.244 | 0.2269 | 0.215 | 0.1541
1 µM, coculture fibroblast: HMF | – | – | – | – | 0.351 | 0.333 | 0.306 | 0.283 | 0.287
1 µM, coculture fibroblast: HPFa | – | – | – | – | 0.481 | 0.4675 | 0.427 | 0.4207 | 0.403
1 µM, coculture fibroblast: HUF | – | – | – | – | 0.482 | 0.486 | 0.449 | 0.442 | 0.427
1 µM, coculture fibroblast: Hs5 | – | – | – | – | 0.425 | 0.422 | 0.407 | 0.391 | 0.396
1 µM, coculture fibroblast: Hs27A | – | – | – | – | 0.315 | 0.35 | 0.338 | 0.335 | 0.249
1 µM, coculture fibroblast: Hs343T | – | – | – | – | 0.32 | 0.3 | 0.275 | 0.265 | 0.264
1 µM, coculture fibroblast: WS1 | – | – | – | – | 0.413 | 0.404 | 0.39 | 0.377 | 0.366
10 µM, coculture fibroblast: C12385 | 0.388 | 0.261 | 0.269 | 0.35 | 0.445 | 0.48 | 0.467 | 0.419 | 0.373
10 µM, coculture fibroblast: H6013 | 0.097 | 0.0382 | 0.0886 | 0.155 | 0.183 | 0.187 | 0.149 | 0.115 | 0.0206
10 µM, coculture fibroblast: H6019 | 0.473 | 0.391 | 0.352 | 0.379 | 0.394 | 0.414 | 0.38 | 0.347 | 0.303
10 µM, coculture fibroblast: H6076 | 0.35 | 0.261 | 0.206 | 0.281 | 0.242 | 0.256 | 0.233 | 0.188 | 0.195
10 µM, coculture fibroblast: H6231 | 0.236 | 0.126 | 0.15 | 0.2376 | 0.26 | 0.273 | 0.217 | 0.159 | 0.112
10 µM, coculture fibroblast: HADF | 0.0389 | 0.0101 | 0.00358 | 0.0927 | 0.142 | 0.167 | 0.155 | 0.132 | 0.0448
10 µM, coculture fibroblast: HCFa | 0.0609 | 0.0151 | 0.0349 | 0.122 | 0.168 | 0.182 | 0.153 | 0.115 | 0.0297
10 µM, coculture fibroblast: HCPF | 0.288 | 0.174 | 0.145 | 0.252 | 0.243 | 0.28 | 0.283 | 0.249 | 0.226
10 µM, coculture fibroblast: HHSteC | 0.06863 | 0.0543 | 0.136 | 0.216 | 0.248 | 0.228 | 0.186 | 0.14 | 0.0474
10 µM, coculture fibroblast: HMF | 0.252 | 0.173 | 0.106 | 0.192 | 0.154 | 0.188 | 0.175 | 0.15 | 0.118
10 µM, coculture fibroblast: HPFa | 0.368 | 0.336 | 0.3952 | 0.418 | 0.384 | 0.3987 | 0.347 | 0.312 | 0.251
10 µM, coculture fibroblast: HUF | 0.325 | 0.237 | 0.303 | 0.296 | 0.282 | 0.292 | 0.277 | 0.238 | 0.235
10 µM, coculture fibroblast: Hs5 | 0.331 | 0.226 | 0.236 | 0.357 | 0.357 | 0.382 | 0.365 | 0.305 | 0.293
10 µM, coculture fibroblast: Hs27A | 0.00964 | 0.0156 | 0.0295 | 0.0952 | 0.117 | 0.157 | 0.134 | 0.119 | 0.0379
10 µM, coculture fibroblast: Hs343T | 0.299 | 0.162 | 0.134 | 0.266 | 0.243 | 0.302 | 0.279 | 0.244 | 0.221
10 µM, coculture fibroblast: WS1 | 0.342 | 0.219 | 0.26 | 0.349 | 0.436 | 0.464 | 0.41 | 0.353 | 0.291
